At least one structure is not confirmed: it was looked up by name or label, or the drawing left a doubt.
Experiments:
[1] = test system: AJ3 crude enzyme solution (esterase); experiment: Hydrolysis of racemic ethyl ketoprofen in 2-phase biotransformations (solvents); assay type: biochemical, Ophiostoma novo-ulmi; details: 48 hours, 25° C.
[2] = test system: AJ3 crude enzyme solution (esterase); experiment: Hydrolysis of racemic ketoprofen esters in 2-phase biotransformations; assay type: biochemical, Ophiostoma novo-ulmi; details: 24 hours, 25° C.
Procedure: Various esters of racemic ketoprofen were dissolved in cyclohexane to a concentration of 20 g/l. The esters used were methyl, ethyl, n-propyl, n-butyl, n-pentyl, n-hexyl. In the case of methyl ester, a suspension was prepared due to low solubility of ester in cyclohexane.
To 5 ml aliquots of crude enzyme solution in glass vials was added 2 ml of each of the six racemic ketoprofen ester solutions above. […] Reactions were conducted with shaking for 24 hours at 25° C.

Structure (SMILES): CCOC(=O)C(C)c1cccc(C(=O)c2ccccc2)c1 (racemic) [ethyl ketoprofen]
- ACID PRODUCED ([1]; AQUEOUS control): 2.3 mg/mL
- CONVERSION ([1]; AQUEOUS control): 6.2%
- ACID PRODUCED ([1]; solvent CYCLOHEXANE): 1.1 mg/mL
- CONVERSION ([1]; solvent CYCLOHEXANE): 14.1%
- ACID PRODUCED ([1]; solvent METHANOL): 0.4 mg/mL
- CONVERSION ([1]; solvent METHANOL): 4.6%
- ACID PRODUCED ([1]; solvent MTBE): 0.7 mg/mL
- CONVERSION ([1]; solvent MTBE): 8.3%
- ACID PRODUCED ([1]; solvent TOLUENE): 0.1 mg/mL
- CONVERSION ([1]; solvent TOLUENE): 1.3%
- ACID PRODUCED ([2]; AQUEOUS CONTROL): 4.6 mg/mL
- CONVERSION ([2]; AQUEOUS CONTROL): 22.9%
- EE (%)(S)-enantiomer ([2]; AQUEOUS CONTROL): 90%
- ACID PRODUCED ([2]; ester 20 g/l in cyclohexane): 1.1 mg/mL
- CONVERSION ([2]; ester 20 g/l in cyclohexane): 27.5%
- EE (%)(S)-enantiomer ([2]; ester 20 g/l in cyclohexane): 100%
